Measured values as given in article doi:10.1101/2024.01.03.574047.

Protein sequences, listed by entry. Tags and fused reporters are not part of them.
UniProt Q6EVK6: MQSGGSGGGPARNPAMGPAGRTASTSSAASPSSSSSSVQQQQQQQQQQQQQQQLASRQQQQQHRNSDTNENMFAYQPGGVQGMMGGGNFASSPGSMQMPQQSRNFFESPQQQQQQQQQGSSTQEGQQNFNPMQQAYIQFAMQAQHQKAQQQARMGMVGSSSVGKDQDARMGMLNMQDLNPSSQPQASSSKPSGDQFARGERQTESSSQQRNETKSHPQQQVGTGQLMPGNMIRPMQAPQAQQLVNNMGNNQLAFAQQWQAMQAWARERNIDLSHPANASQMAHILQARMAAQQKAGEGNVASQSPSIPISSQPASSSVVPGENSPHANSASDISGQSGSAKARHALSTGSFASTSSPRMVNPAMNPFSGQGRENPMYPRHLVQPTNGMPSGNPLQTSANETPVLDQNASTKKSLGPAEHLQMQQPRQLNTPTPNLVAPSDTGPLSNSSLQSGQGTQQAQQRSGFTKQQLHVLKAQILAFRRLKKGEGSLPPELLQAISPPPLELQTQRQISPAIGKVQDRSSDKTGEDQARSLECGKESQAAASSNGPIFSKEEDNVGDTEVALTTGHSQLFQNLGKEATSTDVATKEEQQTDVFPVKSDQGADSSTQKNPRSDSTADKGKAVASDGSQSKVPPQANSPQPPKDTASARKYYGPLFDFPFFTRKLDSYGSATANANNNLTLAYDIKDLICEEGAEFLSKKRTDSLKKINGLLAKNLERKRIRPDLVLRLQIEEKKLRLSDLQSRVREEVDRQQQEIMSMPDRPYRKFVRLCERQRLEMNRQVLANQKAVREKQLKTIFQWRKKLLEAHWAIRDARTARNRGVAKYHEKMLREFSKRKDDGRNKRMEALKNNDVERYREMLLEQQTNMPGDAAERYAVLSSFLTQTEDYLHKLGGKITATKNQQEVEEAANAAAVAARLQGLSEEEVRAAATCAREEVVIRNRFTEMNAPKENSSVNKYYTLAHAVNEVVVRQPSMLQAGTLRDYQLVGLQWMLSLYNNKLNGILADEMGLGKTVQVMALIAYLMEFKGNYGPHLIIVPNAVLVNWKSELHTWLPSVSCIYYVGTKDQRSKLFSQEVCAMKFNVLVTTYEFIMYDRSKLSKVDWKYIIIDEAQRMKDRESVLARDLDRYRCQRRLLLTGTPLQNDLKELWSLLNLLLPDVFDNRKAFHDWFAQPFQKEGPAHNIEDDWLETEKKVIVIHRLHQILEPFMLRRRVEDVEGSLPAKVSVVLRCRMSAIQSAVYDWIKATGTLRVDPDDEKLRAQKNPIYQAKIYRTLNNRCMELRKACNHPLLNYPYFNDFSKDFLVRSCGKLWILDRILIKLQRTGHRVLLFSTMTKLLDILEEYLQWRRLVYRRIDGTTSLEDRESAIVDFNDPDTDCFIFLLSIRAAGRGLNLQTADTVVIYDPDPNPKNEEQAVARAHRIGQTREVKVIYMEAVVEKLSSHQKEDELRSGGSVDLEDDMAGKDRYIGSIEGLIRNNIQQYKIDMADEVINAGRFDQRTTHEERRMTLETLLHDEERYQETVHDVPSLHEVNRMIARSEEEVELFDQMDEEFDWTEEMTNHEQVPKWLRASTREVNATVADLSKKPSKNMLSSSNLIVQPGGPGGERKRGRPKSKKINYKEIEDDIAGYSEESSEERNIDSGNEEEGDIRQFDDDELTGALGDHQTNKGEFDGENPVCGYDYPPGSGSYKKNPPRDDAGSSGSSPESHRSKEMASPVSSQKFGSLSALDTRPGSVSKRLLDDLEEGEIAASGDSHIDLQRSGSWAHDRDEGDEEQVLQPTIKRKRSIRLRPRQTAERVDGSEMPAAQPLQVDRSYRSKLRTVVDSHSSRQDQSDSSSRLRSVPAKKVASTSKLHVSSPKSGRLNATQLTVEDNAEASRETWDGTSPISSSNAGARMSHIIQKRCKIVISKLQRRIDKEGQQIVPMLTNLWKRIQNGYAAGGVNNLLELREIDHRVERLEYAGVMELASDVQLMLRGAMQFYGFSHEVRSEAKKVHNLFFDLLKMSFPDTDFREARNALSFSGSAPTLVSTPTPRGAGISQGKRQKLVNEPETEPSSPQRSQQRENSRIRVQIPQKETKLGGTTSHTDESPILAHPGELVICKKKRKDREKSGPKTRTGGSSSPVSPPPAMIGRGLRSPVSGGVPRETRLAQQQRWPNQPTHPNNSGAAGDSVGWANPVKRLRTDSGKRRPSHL
UniProt F4JLS1: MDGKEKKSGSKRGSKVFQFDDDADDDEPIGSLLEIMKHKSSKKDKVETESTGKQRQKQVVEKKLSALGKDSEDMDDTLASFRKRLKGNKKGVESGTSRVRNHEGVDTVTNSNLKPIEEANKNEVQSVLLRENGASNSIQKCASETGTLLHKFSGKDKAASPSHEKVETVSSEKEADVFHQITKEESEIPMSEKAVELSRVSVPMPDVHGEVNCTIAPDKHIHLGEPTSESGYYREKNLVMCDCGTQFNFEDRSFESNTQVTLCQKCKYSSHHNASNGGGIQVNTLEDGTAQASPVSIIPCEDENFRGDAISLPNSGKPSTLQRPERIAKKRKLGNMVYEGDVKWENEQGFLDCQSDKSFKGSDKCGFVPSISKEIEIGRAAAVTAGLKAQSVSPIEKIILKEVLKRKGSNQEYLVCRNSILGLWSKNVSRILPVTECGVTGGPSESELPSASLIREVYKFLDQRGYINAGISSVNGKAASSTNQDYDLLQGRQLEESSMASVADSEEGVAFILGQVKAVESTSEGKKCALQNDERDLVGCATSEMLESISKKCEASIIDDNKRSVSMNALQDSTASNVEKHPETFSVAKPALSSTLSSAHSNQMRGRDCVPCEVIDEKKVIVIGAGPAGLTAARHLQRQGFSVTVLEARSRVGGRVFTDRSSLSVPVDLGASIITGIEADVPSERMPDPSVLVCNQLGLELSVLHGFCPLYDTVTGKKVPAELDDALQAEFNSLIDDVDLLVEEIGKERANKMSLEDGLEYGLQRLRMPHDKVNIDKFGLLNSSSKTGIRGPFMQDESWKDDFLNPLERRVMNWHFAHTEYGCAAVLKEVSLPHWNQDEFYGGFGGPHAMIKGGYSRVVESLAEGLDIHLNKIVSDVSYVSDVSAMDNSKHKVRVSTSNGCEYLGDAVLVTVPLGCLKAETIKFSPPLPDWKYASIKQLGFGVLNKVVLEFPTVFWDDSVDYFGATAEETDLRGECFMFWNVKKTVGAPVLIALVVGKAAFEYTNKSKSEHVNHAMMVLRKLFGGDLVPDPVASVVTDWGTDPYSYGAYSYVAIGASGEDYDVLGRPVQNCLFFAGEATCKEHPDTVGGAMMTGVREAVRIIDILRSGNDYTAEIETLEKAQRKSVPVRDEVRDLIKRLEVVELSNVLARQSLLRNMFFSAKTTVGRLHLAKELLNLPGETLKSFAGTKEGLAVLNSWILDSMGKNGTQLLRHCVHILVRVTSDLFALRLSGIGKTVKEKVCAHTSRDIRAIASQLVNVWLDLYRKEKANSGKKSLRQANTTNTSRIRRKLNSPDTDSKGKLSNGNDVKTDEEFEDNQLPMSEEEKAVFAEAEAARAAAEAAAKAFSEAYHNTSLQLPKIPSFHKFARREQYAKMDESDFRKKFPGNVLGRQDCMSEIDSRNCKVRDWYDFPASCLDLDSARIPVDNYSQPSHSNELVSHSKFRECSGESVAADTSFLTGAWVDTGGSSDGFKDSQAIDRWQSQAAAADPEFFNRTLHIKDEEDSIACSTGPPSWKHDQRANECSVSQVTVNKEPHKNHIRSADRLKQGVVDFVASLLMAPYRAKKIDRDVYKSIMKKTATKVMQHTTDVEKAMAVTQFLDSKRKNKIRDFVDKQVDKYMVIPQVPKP
UniProt Q9C5T4: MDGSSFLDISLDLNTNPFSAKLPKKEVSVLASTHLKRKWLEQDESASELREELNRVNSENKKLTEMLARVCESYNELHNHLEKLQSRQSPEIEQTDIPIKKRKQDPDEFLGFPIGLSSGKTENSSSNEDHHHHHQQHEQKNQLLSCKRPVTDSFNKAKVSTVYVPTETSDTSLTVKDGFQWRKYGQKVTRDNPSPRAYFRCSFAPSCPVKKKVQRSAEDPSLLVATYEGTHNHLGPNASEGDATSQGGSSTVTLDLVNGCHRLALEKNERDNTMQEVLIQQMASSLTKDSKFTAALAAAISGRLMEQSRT

T1: NPR1-3xHA-TurboID (Arabidopsis), P93002
T1 chain: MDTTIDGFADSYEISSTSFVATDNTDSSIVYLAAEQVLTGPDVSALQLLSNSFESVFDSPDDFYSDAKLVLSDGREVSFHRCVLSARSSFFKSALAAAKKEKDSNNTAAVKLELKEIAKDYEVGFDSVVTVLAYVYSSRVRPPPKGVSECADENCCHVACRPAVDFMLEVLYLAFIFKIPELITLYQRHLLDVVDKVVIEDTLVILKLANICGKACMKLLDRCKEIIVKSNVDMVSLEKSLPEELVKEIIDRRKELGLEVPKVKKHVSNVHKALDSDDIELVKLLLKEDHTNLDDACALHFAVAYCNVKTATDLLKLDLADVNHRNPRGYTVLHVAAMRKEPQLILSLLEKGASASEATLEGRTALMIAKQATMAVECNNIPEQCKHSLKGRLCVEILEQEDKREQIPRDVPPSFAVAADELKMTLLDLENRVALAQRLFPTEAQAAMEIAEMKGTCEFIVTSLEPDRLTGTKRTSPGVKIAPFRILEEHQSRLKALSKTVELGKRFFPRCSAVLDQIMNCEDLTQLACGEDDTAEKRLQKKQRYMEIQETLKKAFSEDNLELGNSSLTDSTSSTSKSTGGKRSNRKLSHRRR


Molecular target: T1, NPR1-3xHA-TurboID (Arabidopsis), P93002
Assay: proximity labelling; TurboID in planta: 3-week-old 35S:NPR1-3xHA-TbID/npr1-2 plants, 1 mM SA, 1 h later 50 uM biotin for 3 h; streptavidin beads, stringent or harsh washes; label-free quantitative LC-MS/MS against YFP-YFP-TbID control
Details: remark: other sources report otherwise

Row | binding | Molecule
1 | binds | NPR1-like protein 3, Q8L746 1-586 (protein) MATLTEPSSSLSFTSSHFSYGSIGSNHFSSSSASNPEVVSLTKLSSNLEQLLSNSDCDYSDAEIIVDGVPVGVHRCILAARSKFFQDLFKKEKKISKTEKPKYQLREMLPYGAVAHEAFLYFLSYIYTGRLKPFPLEVSTCVDPVCSHDCCRPAIDFVVQLMYASSVLQVPELVSSFQRRLCNFVEKTLVENVLPILMVAFNCKLTQLLDQCIERVARSDLYRFCIEKEVPPEVAEKIKQLRLISPQDEETSPKISEKLLERIGKILKALDSDDVELVKLLLTESDITLDQANGLHYSVVYSDPKVVAEILALDMGDVNYRNSRGYTVLHFAAMRREPSIIISLIDKGANASEFTSDGRSAVNILRRLTNPKDYHTKTAKGRESSKARLCIDILEREIRKNPMVLDTPMCSISMPEDLQMRLLYLEKRVGLAQLFFPTEAKVAMDIGNVEGTSEFTGLSPPSSGLTGNLSQVDLNETPHMQTQRLLTRMVALMKTVETGRRFFPYGSEVLDKYMAEYIDDDILDDFHFEKGSTHERRLKRMRYRELKDDVQKAYSKDKESKIARSCLSASSSPSSSSIRDDLHNTT

Molecular target: NPR1-3xHA-TurboID (Arabidopsis) (UniProt P93002)
Assay: as above
Details: not given

Row | Molecule | binding
2 | BRAHMA (from UniProt Q6EVK6 1-2193) | binds
3 | NPR1-like protein 4 (protein, UniProt Q5ICL9 1-574) MAATAIEPSSSISFTSSHLSNPSPVVTTYHSAANLEELSSNLEQLLTNPDCDYTDAEIIIEEEANPVSVHRCVLAARSKFFLDLFKKDKDSSEKKPKYQMKDLLPYGNVGREAFLHFLSYIYTGRLKPFPIEVSTCVDSVCAHDSCKPAIDFAVELMYASFVFQIPDLVSSFQRKLRNYVEKSLVENVLPILLVAFHCDLTQLLDQCIERVARSDLDRFCIEKELPLEVLEKIKQLRVKSVNIPEVEDKSIERTGKVLKALDSDDVELVKLLLTESDITLDQANGLHYAVAYSDPKVVTQVLDLDMADVNFRNSRGYTVLHIAAMRREPTIIIPLIQKGANASDFTFDGRSAVNICRRLTRPKDYHTKTSRKEPSKYRLCIDILEREIRRNPLVSGDTPTCSHSMPEDLQMRLLYLEKRVGLAQLFFPAEANVAMDVANVEGTSECTGLLTPPPSNDTTENLGKVDLNETPYVQTKRMLTRMKALMKTVETGRRYFPSCYEVLDKYMDQYMDEEIPDMSYPEKGTVKERRQKRMRYNELKNDVKKAYSKDKVARSCLSSSSPASSLREALENPT | binds
4 | NIM1-interacting 1 (protein, UniProt Q9FNZ5 1-142) MYPKQFSLYNYSLETMSKDENVESKETIRVDKRVREDEEEEEEKKIDTFFKLIKHYQEARKRRREELAENSGVVRRKSNGGERSGIVVPAFQPEDFSQCRTGLKPPLMFVSDHKEENTKVEQEEDQTEERNEDKALDLNLAL | binds

More lines, now with the values ahead:

Row | binding | Molecule
5 | binds | histone demethylase LSD1-like 3 (from UniProt F4JLS1 1-1628)
6 | binds | WRKY18 (from UniProt Q9C5T4 1-310)

No constants are given. Whether binding was seen depends on the method and setting. In cells and extracts the contact can be indirect. A yes stands for co-enrichment or nearness to the bait. Other partners may have been found.
